In paper PMC11603163:
These are yes or no findings as the source states them, for the method shown. Binding seen in cells or lysates may run through a third protein. A yes stands for co-enrichment or nearness to the bait. Other partners may have been found. For some of these results: No binding means not detected with the bait. For some of these results: Tags and fused reporters may be left off the sequences shown.

Protein sequences, listed by entry. Tags and fused reporters are not part of them.
UniProt Q9LQ02: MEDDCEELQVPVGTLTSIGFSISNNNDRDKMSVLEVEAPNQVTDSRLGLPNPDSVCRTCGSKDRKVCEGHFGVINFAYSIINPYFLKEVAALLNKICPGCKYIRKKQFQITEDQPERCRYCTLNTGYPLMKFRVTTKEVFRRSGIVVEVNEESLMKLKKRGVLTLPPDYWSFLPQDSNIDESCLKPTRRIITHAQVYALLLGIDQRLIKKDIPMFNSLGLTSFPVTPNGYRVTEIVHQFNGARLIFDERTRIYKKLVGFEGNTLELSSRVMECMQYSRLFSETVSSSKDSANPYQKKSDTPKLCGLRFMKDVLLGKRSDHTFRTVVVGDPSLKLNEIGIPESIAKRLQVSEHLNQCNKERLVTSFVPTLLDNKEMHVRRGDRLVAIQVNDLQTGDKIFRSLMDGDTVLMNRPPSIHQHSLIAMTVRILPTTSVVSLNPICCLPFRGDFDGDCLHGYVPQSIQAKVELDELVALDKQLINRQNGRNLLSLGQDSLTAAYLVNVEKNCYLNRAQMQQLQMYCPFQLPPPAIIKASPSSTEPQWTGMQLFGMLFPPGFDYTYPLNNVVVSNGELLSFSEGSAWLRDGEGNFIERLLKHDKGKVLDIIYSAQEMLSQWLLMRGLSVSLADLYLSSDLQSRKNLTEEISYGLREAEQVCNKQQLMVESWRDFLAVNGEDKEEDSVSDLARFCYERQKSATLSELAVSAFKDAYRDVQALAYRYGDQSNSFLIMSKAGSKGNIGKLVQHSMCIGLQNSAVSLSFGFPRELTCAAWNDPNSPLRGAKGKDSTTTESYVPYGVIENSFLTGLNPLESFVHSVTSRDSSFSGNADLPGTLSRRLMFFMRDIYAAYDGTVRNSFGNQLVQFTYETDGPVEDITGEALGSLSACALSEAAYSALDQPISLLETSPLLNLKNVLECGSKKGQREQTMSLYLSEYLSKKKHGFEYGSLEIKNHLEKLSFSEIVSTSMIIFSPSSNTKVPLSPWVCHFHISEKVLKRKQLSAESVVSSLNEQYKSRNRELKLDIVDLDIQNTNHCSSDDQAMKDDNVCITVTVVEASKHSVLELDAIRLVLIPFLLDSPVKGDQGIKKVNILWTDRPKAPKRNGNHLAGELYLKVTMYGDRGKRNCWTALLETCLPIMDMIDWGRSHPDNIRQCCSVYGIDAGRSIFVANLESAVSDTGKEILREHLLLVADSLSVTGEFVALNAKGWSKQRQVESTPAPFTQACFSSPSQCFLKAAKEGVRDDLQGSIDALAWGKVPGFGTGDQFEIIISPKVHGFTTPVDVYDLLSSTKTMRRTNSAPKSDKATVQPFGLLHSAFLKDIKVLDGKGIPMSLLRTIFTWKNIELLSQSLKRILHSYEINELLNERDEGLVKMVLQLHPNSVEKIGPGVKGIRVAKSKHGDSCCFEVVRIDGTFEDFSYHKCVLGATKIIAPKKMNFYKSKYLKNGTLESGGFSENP

Key:
[1] = target: T1, 3xHA-CLSY1 (Arabidopsis) (UniProt Q9M297); test: affinity purification with mass spectrometry; anti-HA IP (uMACS HA kit) of 3xHA-CLSY1 from flowers of nrpd1-3 lines with NRPD1-3xF WT or AAA-YPMF; LC-MS/MS
T1 sequence: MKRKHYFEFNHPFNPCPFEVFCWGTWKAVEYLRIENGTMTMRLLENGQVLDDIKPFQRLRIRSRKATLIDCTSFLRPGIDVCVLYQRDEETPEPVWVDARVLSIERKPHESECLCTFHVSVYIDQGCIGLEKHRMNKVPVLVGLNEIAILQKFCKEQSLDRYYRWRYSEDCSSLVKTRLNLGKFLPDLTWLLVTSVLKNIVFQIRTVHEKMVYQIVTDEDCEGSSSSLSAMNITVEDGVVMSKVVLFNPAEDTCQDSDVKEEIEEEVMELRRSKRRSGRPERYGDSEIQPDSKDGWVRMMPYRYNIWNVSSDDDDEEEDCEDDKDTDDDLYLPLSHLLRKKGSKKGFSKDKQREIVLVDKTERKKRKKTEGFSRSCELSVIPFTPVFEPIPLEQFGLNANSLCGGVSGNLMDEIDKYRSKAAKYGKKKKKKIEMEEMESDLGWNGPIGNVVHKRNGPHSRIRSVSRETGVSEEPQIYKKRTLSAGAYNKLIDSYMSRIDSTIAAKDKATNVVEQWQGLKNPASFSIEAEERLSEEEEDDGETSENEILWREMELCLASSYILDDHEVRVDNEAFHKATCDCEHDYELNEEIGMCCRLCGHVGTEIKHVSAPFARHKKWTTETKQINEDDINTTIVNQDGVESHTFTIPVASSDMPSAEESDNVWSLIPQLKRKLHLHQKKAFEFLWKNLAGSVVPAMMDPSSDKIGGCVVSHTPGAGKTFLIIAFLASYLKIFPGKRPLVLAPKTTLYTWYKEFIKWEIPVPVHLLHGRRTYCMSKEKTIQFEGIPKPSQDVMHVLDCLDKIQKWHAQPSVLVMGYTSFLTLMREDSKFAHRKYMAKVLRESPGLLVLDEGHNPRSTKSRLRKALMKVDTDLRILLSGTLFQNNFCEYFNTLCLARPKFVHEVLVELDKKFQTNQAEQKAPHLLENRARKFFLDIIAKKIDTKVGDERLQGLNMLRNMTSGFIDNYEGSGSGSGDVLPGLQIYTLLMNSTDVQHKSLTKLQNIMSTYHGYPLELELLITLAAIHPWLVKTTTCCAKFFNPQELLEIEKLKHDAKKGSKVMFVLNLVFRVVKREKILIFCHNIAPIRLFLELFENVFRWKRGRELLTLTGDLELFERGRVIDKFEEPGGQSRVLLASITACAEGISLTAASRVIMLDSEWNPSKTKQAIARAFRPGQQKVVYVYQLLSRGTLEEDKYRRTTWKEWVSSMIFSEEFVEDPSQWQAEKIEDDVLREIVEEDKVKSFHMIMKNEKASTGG

[2] = target: NRPD1-3xFWT (Arabidopsis) (UniProt Q9LQ02); test: affinity purification with mass spectrometry; anti-FLAG magnetic beads (uMACS DYKDDDK kit) on flower extracts of nrpd1-3 T2 lines with NRPD1-3xF WT, AAA-YPMF or CYC-AAAA; three lines, two replicates each; LC-MS/MS spectral counts
[3] = target: T2, 3xF-tagged CLSY1 (Arabidopsis) (UniProt Q9M297); test: affinity purification with mass spectrometry; anti-Flag M2 magnetic beads on 10 g flowers of 3xF-tagged CLSY lines in their clsy mutant backgrounds; elution with 3x-FLAG peptide; compared to non-transgenic wild-type controls
T2 sequence: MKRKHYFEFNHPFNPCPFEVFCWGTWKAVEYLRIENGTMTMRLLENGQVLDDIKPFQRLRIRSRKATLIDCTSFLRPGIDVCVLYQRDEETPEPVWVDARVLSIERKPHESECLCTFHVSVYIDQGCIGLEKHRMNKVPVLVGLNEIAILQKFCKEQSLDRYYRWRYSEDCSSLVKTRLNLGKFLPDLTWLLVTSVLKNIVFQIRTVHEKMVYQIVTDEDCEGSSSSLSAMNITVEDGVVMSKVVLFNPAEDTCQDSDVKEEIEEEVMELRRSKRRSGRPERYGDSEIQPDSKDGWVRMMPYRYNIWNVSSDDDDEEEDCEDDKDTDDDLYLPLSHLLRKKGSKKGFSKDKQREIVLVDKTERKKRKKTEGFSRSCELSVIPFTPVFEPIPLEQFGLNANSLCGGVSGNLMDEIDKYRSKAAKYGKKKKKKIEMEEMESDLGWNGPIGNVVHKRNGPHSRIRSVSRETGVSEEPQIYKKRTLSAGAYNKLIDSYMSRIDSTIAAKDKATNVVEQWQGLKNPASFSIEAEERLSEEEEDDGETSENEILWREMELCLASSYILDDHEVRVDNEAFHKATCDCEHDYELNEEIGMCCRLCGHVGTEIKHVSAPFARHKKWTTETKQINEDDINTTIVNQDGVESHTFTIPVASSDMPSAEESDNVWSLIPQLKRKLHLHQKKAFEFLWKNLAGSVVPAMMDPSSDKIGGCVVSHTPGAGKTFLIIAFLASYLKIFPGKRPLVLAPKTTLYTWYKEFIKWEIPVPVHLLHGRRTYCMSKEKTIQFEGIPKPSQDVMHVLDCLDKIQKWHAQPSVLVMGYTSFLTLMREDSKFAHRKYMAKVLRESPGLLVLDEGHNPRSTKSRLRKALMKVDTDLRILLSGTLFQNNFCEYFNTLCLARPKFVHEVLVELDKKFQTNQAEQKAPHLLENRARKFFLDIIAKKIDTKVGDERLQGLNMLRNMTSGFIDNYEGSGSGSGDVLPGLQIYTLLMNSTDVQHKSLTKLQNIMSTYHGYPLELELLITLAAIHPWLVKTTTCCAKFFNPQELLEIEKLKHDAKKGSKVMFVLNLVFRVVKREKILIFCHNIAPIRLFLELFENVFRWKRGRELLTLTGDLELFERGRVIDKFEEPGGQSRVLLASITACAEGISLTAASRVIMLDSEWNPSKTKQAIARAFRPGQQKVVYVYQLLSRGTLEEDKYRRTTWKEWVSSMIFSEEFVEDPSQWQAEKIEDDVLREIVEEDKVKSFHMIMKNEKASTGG

[4] = target: T3, 3xF-tagged CLSY4 (Arabidopsis) (UniProt Q9LK10); test: as above
T3 sequence: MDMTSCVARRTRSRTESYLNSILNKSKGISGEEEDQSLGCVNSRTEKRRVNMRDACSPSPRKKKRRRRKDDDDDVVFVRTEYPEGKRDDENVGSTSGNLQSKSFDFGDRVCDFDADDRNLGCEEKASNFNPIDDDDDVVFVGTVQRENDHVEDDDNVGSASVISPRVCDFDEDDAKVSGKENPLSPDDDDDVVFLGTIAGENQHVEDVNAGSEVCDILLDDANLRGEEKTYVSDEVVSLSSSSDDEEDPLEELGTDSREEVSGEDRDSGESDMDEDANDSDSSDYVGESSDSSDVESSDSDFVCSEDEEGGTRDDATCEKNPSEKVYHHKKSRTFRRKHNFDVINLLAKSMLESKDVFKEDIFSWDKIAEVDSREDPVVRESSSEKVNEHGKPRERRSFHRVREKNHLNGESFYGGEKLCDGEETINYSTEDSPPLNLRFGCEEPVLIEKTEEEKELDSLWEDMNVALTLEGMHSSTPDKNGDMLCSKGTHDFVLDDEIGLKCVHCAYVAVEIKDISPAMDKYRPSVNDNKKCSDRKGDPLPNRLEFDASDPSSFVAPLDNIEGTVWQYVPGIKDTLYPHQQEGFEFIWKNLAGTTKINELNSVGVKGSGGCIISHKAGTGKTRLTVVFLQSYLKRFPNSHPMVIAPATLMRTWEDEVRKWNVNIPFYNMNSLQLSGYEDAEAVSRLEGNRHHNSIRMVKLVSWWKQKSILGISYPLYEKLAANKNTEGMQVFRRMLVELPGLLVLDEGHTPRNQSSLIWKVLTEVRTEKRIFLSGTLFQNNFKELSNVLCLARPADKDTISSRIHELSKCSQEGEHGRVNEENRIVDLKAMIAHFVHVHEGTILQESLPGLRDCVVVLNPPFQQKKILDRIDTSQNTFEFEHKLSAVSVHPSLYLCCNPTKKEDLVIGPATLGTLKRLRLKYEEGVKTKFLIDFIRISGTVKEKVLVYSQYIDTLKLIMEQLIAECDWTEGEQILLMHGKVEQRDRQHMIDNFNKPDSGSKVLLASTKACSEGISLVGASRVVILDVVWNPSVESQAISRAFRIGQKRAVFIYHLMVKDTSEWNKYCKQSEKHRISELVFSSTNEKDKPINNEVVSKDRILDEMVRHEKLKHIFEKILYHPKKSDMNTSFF

binding [1]: no binding
binding [2]: binds
binding [3]: no binding
binding [4]: no binding
B1: CLASSY 3 (CLSY3) (protein, UniProt F4I8S3 1-1410)
chain: MECIGKRVKSRSWQRLQAVNKRKKMETVAPVTSPPKKRRQKKPKNYDSDIEDITPTCNDSVPPPQVSNMYSVPNNSVKESFSRIMRDLNVEKKSGPSSSRLTDGSEQNPCLKERSFRVSDLGVEKKCSPEITDLDVGIPVPRFSKLKDVSEQKNTCLMQKSSPEIADLDLVISVPSSSVLKDVSEEIRFLKDKCSPEIRGLVLEKSVPGEIEILSDSESETEARRRASAKKKLFEESSRIVESISDGEDSSSETDEEEEENQDSEDNNTKDNVTVESLSSEDPSSSSSSSSSSSSSSSSSSSDDESYVKEVVGDNRDDDDLRKASSPIKRVSLVERKALVRYKRSGSSLTKPRERDNKIQKLNHREEEKKERQREVVRVVTKQPSNVVYTCAHCGKENTGNPESHSSFIRPHSIRDEIEDVNNFASTNVSKYEDSVSINSGKTTGAPSRPEVENPETGKELNTPEKPSISRPEIFTTEKAIDVQVPEEPSRPEIYSSEKAKEVQAPEMPSRPEVFSSEKAKEIQVPEMPSIPEIQNSEKAKEVQANNRMGLTTPAVAEGLNKSVVTNEHIEDDSDSSISSGDGYESDPTLKDKEVKINNHSDWRILNGNNKEVDLFRLLVNSVWEKGQLGEEDEADELVSSAEDQSQEQAREDHRKYDDAGLLIIRPPPLIEKFGVEEPQSPPVVSEIDSEEDRLWEELAFFTKSNDIGGNELFSNVEKNISANETPAAQCKKGKHDLCIDLEVGLKCMHCGFVEREIRSMDVSEWGEKTTRERRKFDRFEEEEGSSFIGKLGFDAPNNSLNEGCVSSEGTVWDKIPGVKSQMYPHQQEGFEFIWKNLAGTIMLNELKDFENSDETGGCIMSHAPGTGKTRLTIIFLQAYLQCFPDCKPVIIAPASLLLTWAEEFKKWNISIPFHNLSSLDFTGKENSAALGLLMQKNATARSNNEIRMVKIYSWIKSKSILGISYNLYEKLAGVKDEDKKTKMVREVKPDKELDDIREILMGRPGLLVLDEAHTPRNQRSCIWKTLSKVETQKRILLSGTPFQNNFLELCNVLGLARPKYLERLTSTLKKSGMTVTKRGKKNLGNEINNRGIEELKAVMLPFVHVHKGSILQSSLPGLRECVVVLNPPELQRRVLESIEVTHNRKTKNVFETEHKLSLVSVHPSLVSRCKISEKERLSIDEALLAQLKKVRLDPNQSVKTRFLMEFVELCEVIKEKVLVFSQYIDPLKLIMKHLVSRFKWNPGEEVLYMHGKLEQKQRQTLINEFNDPKSKAKVFLASTKACSEGISLVGASRVILLDVVWNPAVERQAISRAYRIGQKRIVYTYHLVAKGTPEGPKYCKQAQKDRISELVFACSSRHDKGKEKIAEAVTEDKVLDTMVEHSKLGDMFDNLIVQPKEADLVEGFSILMP
